Consider 1 substance from paper PMC7286146.

Sequences of proteins named here, by UniProt entry; tags and fusion partners are left off. Residues count along the entry.
UniProt P02769, residues 25-607: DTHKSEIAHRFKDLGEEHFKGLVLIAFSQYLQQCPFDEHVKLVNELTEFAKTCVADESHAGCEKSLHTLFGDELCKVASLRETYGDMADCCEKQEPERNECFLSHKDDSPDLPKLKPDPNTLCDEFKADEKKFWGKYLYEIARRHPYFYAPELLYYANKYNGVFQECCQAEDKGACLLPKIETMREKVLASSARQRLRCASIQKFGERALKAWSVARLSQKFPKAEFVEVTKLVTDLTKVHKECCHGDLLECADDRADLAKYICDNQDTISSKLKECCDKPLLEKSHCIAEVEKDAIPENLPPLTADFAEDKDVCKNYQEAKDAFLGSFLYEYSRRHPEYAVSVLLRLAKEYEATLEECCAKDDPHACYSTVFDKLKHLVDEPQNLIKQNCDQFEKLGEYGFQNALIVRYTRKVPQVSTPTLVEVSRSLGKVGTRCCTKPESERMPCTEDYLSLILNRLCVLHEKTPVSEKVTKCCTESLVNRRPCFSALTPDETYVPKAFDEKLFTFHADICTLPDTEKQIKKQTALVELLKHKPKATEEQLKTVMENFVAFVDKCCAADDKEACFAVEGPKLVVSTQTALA

No constants are given. Whether binding was seen depends on the method and setting.

In the assay the target is Bovine serum albumin (bovine) (UniProt P02769). As to the kind of experiment: dynamic light scattering; BSA dispersed in saline (0.9% NaCl) at pH 7.0, 22°C; size distribution in solution; both purified.

In the case of “Bovine serum albumin (from UniProt P02769 25-607)”, the binding entry was “no binding (condition: at pH 7.0 in saline)”.
